Source: PubChem BioAssay AID1347076 (National Center for Advancing Translational Sciences (NCATS), 2019)
Out of some 400,000 compounds screened, about 13,000 (3.2%) were called active. This list was built around the results that the source calls inconclusive (neither active nor inactive); the mix of calls is not that of the screen. Calls come from the whole dose curve; as a rule, active = well fitted cell-killing curve with a large enough effect; inconclusive = small, poorly fitted or top-dose-only effect, or effect the other way; inactive = flat fitted curve, though single readings scatter. Potencies beside an inconclusive call are fits to weak or partial responses and may not hold up.
% is set by controls: 0 for no effect and ±100 for the full control effect; potency is the fitted concentration of half-maximal effect.

Test: qHTS assay for MDR1-selective chemotherapeutics: Primary screen using the drug-selected MDR subline cells KB-V1; note: nearly all actives have a fitted effect of over 60% in size
Conditions: KB-V1 MDR cells viability, CellTiter-Glo, 72 h; activity change, negative = cytotoxicity: at 46.1 µM (top of the series)
How it was run: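 Luminescent ATP read-out (CellTiter-Glo, 10 min) measures survival of drug-selected KB-V1 MDR cells after 72 h, 37 degrees C compound exposure. Medium: phenol-red-free DMEM, 10% FBS. Values from fitted concentration-response curves.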
With O=C(c1cc2c(s1)-c1ccccc1OC2)N1CCC2(CC1)OCCO2 the Potency was active: 13 µM.
For C=CC(=O)OCCO, the Potency was “inactive”.
For CC12CCC3C(CCC4CC(=O)CCC43C)C1CC(=NO)C2=O (stereo not drawn), the Potency was inconclusive: 20.6 µM [cytotoxic, single point].
For COc1cccc(C(c2nnnn2C2CCCCC2)N2CCC3(CC2)C(=O)NCN3c2ccccc2)c1OC (stereo not drawn), the Potency was inconclusive: 29.1 µM [cytotoxic, single point].
In the case of CC(N)Cc1c[nH]c2ccc(OCc3cccs3)cc12 (stereo not drawn), the Potency is reported as inconclusive: 23.1 µM [cytotoxic, partial curve].
For CC(=O)OC1CC(OC2C(O)CC(OC3C(O)CC(OC4CCC5(C)C(CCC6C5CCC5(C)C(C7=CC(=O)OC7)CCC65O)C4)OC3C)OC2C)OC(C)C1OC1OC(CO)C(O)C(O)C1O (stereo not drawn), the Potency was active: 0.411 µM.
For COc1cc2c(cc1OC)C(C(=O)NCCC(C)C)C1CCCCN1C2=O (stereo not drawn), the Potency was inconclusive: 20.6 µM [cytotoxic, single point].
For COC(=O)C1=C(c2ccc(S(C)(=O)=O)cc2)C[C@@H]2CC[C@H]1N2C(=O)N1CCCC1, the Potency was “inactive”.
With CC(C)(O)C(=O)Nc1ccc([N+](=O)[O-])c(C(F)(F)F)c1 the Potency was inconclusive: 18.4 µM [cytotoxic, partial curve, poor fit].
With CCCCCn1c(=O)c(C(=O)Nc2ncccc2C)c(O)c2ccccc21 the Potency was active: 5.17 µM.
With COC(=O)C1=C(c2ccc(S(C)(=O)=O)cc2)C[C@@H]2CC[C@H]1N2C(=O)NCCNC(C)=O the Potency was “inactive”.
With O=C(O)COc1ccccc1/C=C1\C(=O)NC(=O)N(CCC2=CCCCC2)C1=O the activity change, negative = cytotoxicity was inconclusive: 14.4%.
For O=C1CN=C(c2cccc(Br)c2)c2cc(Br)ccc2N1, the Potency was inconclusive: 29.1 µM [cytotoxic, partial curve, poor fit].
In the case of O=C(c1sc2ccccc2c1Cl)N1CCC2(CC1)OCCO2, the Potency is reported as “inactive”.
With CN1[C@H]2CC[C@@H]1C(C(=O)N1CCOCC1)=C(O)C2 the Potency was “inactive”.
In the case of CCCCCCn1c(=O)c(C(=O)Nc2c(C)n(C)n(-c3ccccc3)c2=O)c(O)c2ccccc21, the Potency is reported as active: 1.64 µM.
For Cc1c(C(=O)N2CCC3(CC2)OCCO3)oc2ccccc12, the Potency was inconclusive: 6.51 µM [cytotoxic, full curve].
With O=C(NC1CONC1=O)OCC(Cl)(Cl)Cl (stereo not drawn) the Potency was “inactive”.
With O=c1[nH]c(=S)[nH]c(O)c1N=Nc1ccc2c(c1)OCCO2 the Potency was inconclusive: 29.1 µM [cytotoxic, single point].
For N#Cc1ccc2nc(-c3ccc(CN4CCC(n5c(=O)[nH]c6ccccc65)CC4)cc3)c(-c3ccccc3)nc2c1, the Potency was inconclusive: 20.6 µM [cytotoxic, single point].
In the case of CCCCn1c(=O)c(C(=O)Nc2ccccn2)c(O)c2ccccc21, the Potency is reported as “inactive”.
For CC(C)(C)NS(=O)(=O)c1ccc(OCC(=O)N2CCN(Cc3ccccc3)CC2)cc1, the Potency was inconclusive: 11.6 µM [cytotoxic, partial curve].
With CCCCNC(=O)c1c(N)n(CCCOC)c2nc3ccccc3nc12 the Potency was active: 18.4 µM.
For CC(C)CNc1c2c(nc3ccccc13)CCC2, the Potency was inconclusive: 29.1 µM [cytotoxic, single point].
With Cc1cccc(C2=NCC(=O)N(CC(=O)NCc3ccco3)c3sc4c(c32)CCCC4)c1 the Potency was active: 23.1 µM.
In the case of CCOc1ccc(N2C(=O)/C(=C/c3ccco3)C(=O)NC2=S)cc1, the Potency is reported as “inactive”.
In the case of COC(=O)C1=C(c2ccc(OCc3ccccc3)cc2)C[C@@H]2CC[C@H]1N2C(=O)NCc1cccc(OC)c1, the Potency is reported as inconclusive: 11.6 µM [cytotoxic, partial curve, poor fit].
In the case of Cc1ccc2nc(N3CCC(C(=O)N4CCC5(CC4)OCCO5)CC3)sc2c1, the Potency is reported as inconclusive: 9.2 µM [cytotoxic, partial curve].
In the case of Cc1ccc(NC(=O)N(Cc2ccc3c(c2)OCO3)C2CCN(Cc3ccccc3)CC2)cc1C, the Potency is reported as “inactive”.
In the case of COC(=O)C1=C(c2ccc(C(C)=O)cc2)C[C@@H]2CC[C@H]1N2C(=O)NCc1ccco1, the Potency is reported as “inactive”.
In the case of COc1ccc(C(c2nnnn2C2CCCCC2)N2CCC3(CC2)C(=O)NCN3c2ccccc2)cc1 (stereo not drawn), the Potency is reported as inconclusive: 29.1 µM [cytotoxic, partial curve, poor fit].
With Cc1ncc2n1-c1ccc(Cl)cc1C(c1ccccc1F)=NC2 the Potency was inconclusive: 14.6 µM [cytotoxic, single point].
For O=C(O)c1cc(Oc2ccc(C(F)(F)F)cc2Cl)ccc1[N+](=O)[O-], the Potency was “inactive”.
For Oc1ccccc1-[n+]1c(-c2ccccc2)cc(-c2ccccc2)cc1-c1ccccc1, the Potency was “inactive”.
With CN1CCN(c2ccc([N+](=O)[O-])c(NCc3ccco3)c2)CC1 the Potency was active: 11.6 µM.
For COc1cc2c(cc1OC)C(C(=O)N(C)C1CCCCC1)C1CCCCN1C2=O (stereo not drawn), the Potency was inconclusive: 1.84 µM [cytotoxic, full curve].
For CCCCCn1c(=O)c(C(=O)Nc2cnccn2)c(O)c2ccccc21, the Potency was active: 16.4 µM.
With COC(=O)C1=C(c2ccc(OC)c(OC)c2)C[C@@H]2CC[C@H]1N2C(=O)NC1CC1 the Potency was inconclusive: 11.6 µM [rising, partial curve, poor fit].
In the case of Cc1ccc(-n2c(C)nc3cc(Cl)ccc3c2=O)nc1, the Potency is reported as “inactive”.
With CC(CC(C)(C)N1CC1)=NO the Potency was “inactive”.
For O=C(NP(=O)(N1CC1)N1CC1)c1cc(I)ccc1I, the Potency was “inactive”.
In the case of CC1(C)C(=O)C=C[C@]2(C)[C@H]3CC[C@@]4(C)[C@H](c5ccoc5)OC(=O)[C@H]5O[C@]54[C@]3(C)[C@H](O)C[C@@H]12, the Potency is reported as inconclusive: 16.4 µM [rising, single point].
For CCOc1ccc(CN(CCc2ccc3c(c2)OCO3)Cc2cc(OC)ccc2O)cc1, the Potency was “inactive”.
In the case of CCCCCOc1ccc(C)cc1CN(CCCl)CCCl, the Potency is reported as inconclusive: 18.4 µM [cytotoxic, single point].
In the case of CN1OCC2Cn3c(nc4ccccc43)C21 (stereo not drawn), the Potency is reported as inconclusive: 25.9 µM [rising, single point].
For COC(=O)c1nc(-c2ccc3c(n2)C(=O)C(N)=C(OC)C3=O)c(N)c(-c2ccc(OC)c(OC)c2O)c1C, the Potency was active: 10.3 µM.
With COc1ccc(CCN(C)Cc2ccncc2)cc1OC the Potency was inconclusive: 20.6 µM [cytotoxic, partial curve, poor fit].
With CCOc1cccc(=NC2CCCCC2)c2c(C)[nH]c(C)c12 the Potency was inconclusive: 20.6 µM [cytotoxic, single point].
With CCn1nc(/C=C/c2ccccc2)nc2c(=O)n(C)c(=O)nc1-2 the Potency was inconclusive: 4.61 µM [cytotoxic, full curve].
With CCCCn1c(O)c(C(CC)=Nc2ccc(OCC)cc2)c(=O)[nH]c1=O the Potency was active: 20.6 µM.
In the case of COc1cccc(N2C(=O)/C(=C/c3ccc(C)o3)C(=O)NC2=S)c1, the Potency is reported as “inactive”.
In the case of CC(C)N1CCN(Cc2c[nH]c3ccccc23)CC1CCO (stereo not drawn), the Potency is reported as inconclusive: 32.6 µM [rising, single point].
For Cc1ccc(N2C(=O)NC(=O)C3(Cc4ccccc4N4CCCC43)C2=O)cc1 (stereo not drawn), the Potency was “inactive”.
For Nc1nonc1OCCCCOc1nonc1N, the Potency was “inactive”.
For Cc1cccc(-n2c(O)c(/C=C/C=Nc3ccccc3)c(=O)[nH]c2=O)c1, the Potency was “inactive”.
In the case of C[C@]12CCC3C(CC[C@H]4C[C@@H](O)CC[C@]34C)[C@H]1CC[C@H]2O (stereo partly drawn), the Potency is reported as inconclusive: 10.3 µM [rising, partial curve, poor fit].
In the case of COC(=O)C1=CO[C@@H](C)[C@@H]2CN(CCc3c[nH]c4ccccc34)CC[C@H]12, the Potency is reported as “inactive”.
With O=P(Nc1ccccc1)(Nc1ccccc1)Oc1ccc(Cl)cc1 the Potency was inconclusive: 18.4 µM [cytotoxic, single point].
For CN1CCC(=O)N(CCN=[N+]=[N-])CC1, the Potency was “inactive”.
With Cc1ccc2occ(CN3CC4CC(C3)c3cccc(=O)n3C4)c(=O)c2c1 (stereo not drawn) the Potency was inconclusive: 11.6 µM [cytotoxic, partial curve, poor fit].
With O=C(C[N+]12CCC(CC1)C(C(O)(c1ccccc1)c1ccccc1)C2)c1ccc(Br)cc1 (stereo not drawn) the Potency was “inactive”.
In the case of CCCCn1nnnc1C(CCSC)N1CCC2(CC1)C(=O)NCN2c1ccccc1 (stereo not drawn), the Potency is reported as “inactive”.
In the case of CCCCn1c(=O)c(C(=O)Nc2ccsc2C(=O)OC)c(O)c2ccccc21, the Potency is reported as inconclusive: 5.8 µM [cytotoxic, full curve].
For COC(=O)OCC12CCC(O1)C1(C)C(=O)OCC21 (stereo not drawn), the Potency was inconclusive: 29.1 µM [rising, single point].
In the case of COc1ccc(Cn2c(O)c(/C=N/NC(=O)c3ccccc3)c(=O)[nH]c2=O)cc1, the Potency is reported as “inactive”.
In the case of CC(=NCc1cccnc1)c1c(O)n(Cc2ccccc2)c(=O)[nH]c1=O, the Potency is reported as inconclusive: 25.9 µM [cytotoxic, single point].
In the case of CCOC(=O)c1c(-n2c(C)cc(C=C3C(=O)NC(=S)NC3=O)c2C)sc2c1CCCC2, the Potency is reported as “inactive”.
In the case of Cc1ccc(-n2c(O)c(C=NCc3ccco3)c(=O)[nH]c2=S)cc1C, the Potency is reported as inconclusive: 29.1 µM [cytotoxic, single point].
For COc1ccccc1NP1(=O)OCC(C)([N+](=O)[O-])CO1 (stereo not drawn), the Potency was “inactive”.
With COc1ccccc1-n1c(/C=C/c2ccccn2)nc2ccccc2c1=O the Potency was inconclusive: 18.4 µM [cytotoxic, single point].
In the case of COc1ccc(OC(=O)N(C)C[C@@H]2OCc3cnnn3CCCC(=O)N([C@H](C)CO)C[C@H]2C)cc1, the Potency is reported as inconclusive: 29.1 µM [rising, single point].
For COc1cccc(C(c2nnnn2-c2ccc3c(c2)OCCO3)N2CCC(n3c(=O)[nH]c4ccccc43)CC2)c1OC (stereo not drawn), the Potency was inconclusive: 20.6 µM [cytotoxic, single point].
With CCOC(=O)[C@]12Cc3c(cc(OC)c(OC)c3OC)[C@H]1N(CCC(=O)OC)C(=O)c1ccccc12 the Potency was inconclusive: 25.9 µM [cytotoxic, single point].
